Reference: patent US11801256B2, “Antidepressant-psilocybin co-treatment to assist psychotherapy” (Universitätsspital Basel, priority 2021, dated 2023)
For at least one compound, name, drawing or mass did not settle the structure.

The chains behind the UniProt entries cited, without tags or fusion partners.
UniProt P14416, whole entry: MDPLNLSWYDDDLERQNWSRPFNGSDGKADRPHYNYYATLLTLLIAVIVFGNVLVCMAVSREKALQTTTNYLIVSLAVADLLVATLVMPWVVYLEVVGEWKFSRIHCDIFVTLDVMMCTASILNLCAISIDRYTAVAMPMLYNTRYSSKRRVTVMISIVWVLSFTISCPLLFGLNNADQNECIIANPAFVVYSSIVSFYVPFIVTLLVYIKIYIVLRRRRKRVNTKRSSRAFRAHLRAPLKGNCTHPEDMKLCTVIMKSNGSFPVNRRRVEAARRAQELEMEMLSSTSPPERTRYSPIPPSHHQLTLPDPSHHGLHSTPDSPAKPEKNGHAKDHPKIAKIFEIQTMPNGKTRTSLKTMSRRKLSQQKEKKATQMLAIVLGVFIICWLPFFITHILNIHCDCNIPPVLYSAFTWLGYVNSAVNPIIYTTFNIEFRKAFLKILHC

Assays:
healthy subjects [1] = assay: Adjective Mood Rating Scale (AMRS); assay type: in vivo, human; conditions: 25 mg psilocybin
Protocol: (§1) Treatment order was random and counterbalanced.
The 60-item Adjective Mood Rating Scale (AMRS) (Janke & Debus, 1978) was administered before and 2, 3, 5, and 7 hours after psilocybin administration.
The criterion for significance was p<0.05.

BDNF = assay: Plasma BDNF levels (ELISA); assay type: in vivo, human
Protocol: Psychedelics can induce neuroregeneration (Ly et al., 2018). Plasma BDNF levels are a possible biomarker for neurogenesis (Haile et al., 2014). Psychedelics increase BDNF (Holze et al., 2021; Hutten et al., 2020) and higher BDNF levels were associated with lower depression ratings after administration of psychedelics (de Almeida et al., 2019). Plasma BDNF levels were measured at baseline and 4 and 7 hours after drug administration using the Biosensis Mature BDNF Rapid ELISA Kit (Thebarton, Australia) (Akimoto et al., 2019).

healthy subjects [2] = assay: Subjective effects, visual analog scales (VAS), clinical study; assay type: in vivo, human; conditions: 25 mg psilocybin
Protocol: as §1
Study procedures: Subjects took part in a 2-hour screening session, two 9.5-hour test sessions where the psilocybin was administered and a 1-hour end-of-study visit. The subjects were informed about the study both verbally and by the approved written consent form regarding the altered state of consciousness, the study procedures and associated risks. The investigator and the subject both personally signed and dated the consent form as confirmation of consent. Subjects were screened using a semi-structured clinical interview for DSM-IV (Diagnostic and Statistical Manual Version 4) (Wittchen et al., 1997) to exclude those with a personal or family (first-degree relative) axis I major psychiatric disorder (acute or past) or a history of illicit drug dependence. Axis I major psychiatric disorders included also addiction disorders. The sessions were conducted in a calm standard hospital room. Only one research subject and one investigator were present during the test sessions. The test sessions began at 9 AM. The subjects then underwent baseline measurements. […] Psilocybin was administered at 11:00 AM. The outcome measures were repeatedly assessed for 7 hours. The subjects were under constant supervision by an investigator until 6 PM. Thus, the subjects were never alone during the 7 hours after drug administration. […]

D2 receptors = D2 receptors (Homo sapiens, UniProt P14416); conditions: in contrast to LSD; cited from earlier work
healthy subjects [3] = assay: Mystical Experience Questionnaire (MEQ30, MEQ43); assay type: in vivo, human; conditions: 25 mg psilocybin
Protocol: as §1
Mystical experiences were assessed using the German version (Liechti et al., 2017) of the 100-item States of Consciousness Questionnaire (SOCQ) (Griffiths et al., 2006) that includes the 43-item and newer 30-item MEQ (MEQ43 (Griffiths et al., 2006) and MEQ30 (Barrett et al., 2015)). The scale was be administered once at the end of each test session.

healthy subjects [4] = assay: 5 Dimensions of Altered States of Consciousness Scale (5D-ASC); assay type: in vivo, human; conditions: 25 mg psilocybin
Excerpt: as §1
5-Dimensional Altered States of Consciousness (5D-ASC): The 5-dimensional Altered States of Consciousness (5D-ASC) Scale is a visual analog scale consisting of 94 items (Dittrich, 1998; Studerus et al., 2010). The instrument contains five main scales (FIG. 17) and 11 newer subscales (FIG. 18) assessing mood, anxiety, derealization, depersonalization, changes in perception, auditory alterations, and reduced vigilance. The scale is well-validated (Studerus et al., 2010). The total ASC score is the sum of the three main dimensions/scales Oceanic Boundlessness (OB), Anxious Ego Dissolution (AED) and Visionary Restructuralization (VR). There are two additional main scales measuring Auditory Alterations (AA) and Vigilance Reduction (VIR) (FIG. 17). The 5D-ASC scale was administered once at the end of the session and subjects were instructed to retrospectively rate peak alterations that have been experienced during the study session. Each item of the scale is scored on a 0-100 mm VAS. The attribution of the individual items to the subscales of the 5D-ASC was analyzed according to (Dittrich, 1998; Studerus et al., 2010) and as shown in FIG. 18. The scale was be administered once at the end of each test session.

CN(C)CCc1c[nH]c2cccc(OP(=O)(O)O)c12 [Psilocybin, psilocybin]
subjective effects on the AMRS (healthy subjects [1]): marked subjective effects | BDNF plasma levels (BDNF; at 4 h after psilocybin, after placebo pretreatment): slightly increased | BDNF plasma levels (BDNF; at 7 hours after psilocybin, after escitalopram or placebo pretreatment): slightly increased | good drug effects (healthy subjects [2]): mainly induced good drug effects | subjective effects on the VAS (healthy subjects [2]): marked subjective effects | affinity for D2 receptors (D2 receptors): no affinity | alterations of mind in the MEQ30 (healthy subjects [3]): robust alterations of mind | alterations of mind in the MEQ43 (healthy subjects [3]): robust alterations of mind | alterations of mind in the 5D-ASC (healthy subjects [4]): robust alterations of mind
